Results reported in patent US5916872A (IntraBiotics Pharmaceuticals, Inc., priority 1996, dated 1999).

Experiment: general procedure: Fmoc solid-phase peptide synthesis; Fmoc Arg(PMC) HMP solid support resin (Bachem)
Conditions: cyclisation step, overall, bicyclic, sequence written open

Question: Which results are given for CYCRRRFCVCVGRWL?
Answer: cyclisation yield (run 1): about 10-20%; cyclisation yield (run 2): about 30-45%

Where a sequence shows no end group, the ends are not given.
